Reference: patent US20020156245A1
These are yes or no findings as the source states them, for the method shown. Some results given as binding are weak or reduced against the parent protein; the word gives no strength.

Protein sequences, listed by entry. Tags and fused reporters are not part of them. Lines headed by an entry give the natural chain unless they say otherwise; changes in a name come on top.
UniProt Q9Y6C5: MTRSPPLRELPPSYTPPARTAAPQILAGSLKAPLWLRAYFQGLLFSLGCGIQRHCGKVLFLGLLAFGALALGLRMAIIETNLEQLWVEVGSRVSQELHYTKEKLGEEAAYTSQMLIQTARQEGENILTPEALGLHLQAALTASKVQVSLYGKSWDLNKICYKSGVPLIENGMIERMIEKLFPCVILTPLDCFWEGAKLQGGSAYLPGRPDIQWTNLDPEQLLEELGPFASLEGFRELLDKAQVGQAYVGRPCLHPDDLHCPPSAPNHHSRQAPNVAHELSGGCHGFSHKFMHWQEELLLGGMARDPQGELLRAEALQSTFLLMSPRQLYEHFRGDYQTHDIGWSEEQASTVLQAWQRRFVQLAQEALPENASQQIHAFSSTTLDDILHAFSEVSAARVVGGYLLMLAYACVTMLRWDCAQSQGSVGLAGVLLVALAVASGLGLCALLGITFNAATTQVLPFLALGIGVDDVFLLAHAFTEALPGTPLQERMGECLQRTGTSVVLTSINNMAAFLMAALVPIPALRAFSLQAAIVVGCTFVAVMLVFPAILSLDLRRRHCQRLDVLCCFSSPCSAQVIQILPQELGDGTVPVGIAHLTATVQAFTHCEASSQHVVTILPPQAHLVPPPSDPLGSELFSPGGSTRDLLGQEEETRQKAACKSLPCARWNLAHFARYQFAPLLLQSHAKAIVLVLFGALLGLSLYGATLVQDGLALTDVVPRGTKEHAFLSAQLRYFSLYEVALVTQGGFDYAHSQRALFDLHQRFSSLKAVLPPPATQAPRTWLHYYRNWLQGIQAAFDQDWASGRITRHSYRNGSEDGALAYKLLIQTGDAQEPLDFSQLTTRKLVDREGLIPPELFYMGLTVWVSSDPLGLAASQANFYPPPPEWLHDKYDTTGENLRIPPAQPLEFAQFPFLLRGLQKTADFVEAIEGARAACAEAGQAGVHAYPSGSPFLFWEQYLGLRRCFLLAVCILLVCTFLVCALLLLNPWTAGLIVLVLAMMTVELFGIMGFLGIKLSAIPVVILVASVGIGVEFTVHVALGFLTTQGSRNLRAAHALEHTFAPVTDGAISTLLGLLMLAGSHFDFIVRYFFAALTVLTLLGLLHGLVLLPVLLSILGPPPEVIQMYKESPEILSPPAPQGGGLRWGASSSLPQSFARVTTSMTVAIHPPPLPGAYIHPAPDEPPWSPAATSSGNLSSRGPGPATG

Target: human Ptch-2 (SEQ ID NO:2) (human) (UniProt Q9Y6C5)
Assay: competition with 100 pM 125I-Shh on transfected 293 cells

binding: binds
Substance: Dhh (SEQ ID NO:13) (from UniProt Q61488 23-198) (ligand)
